Measured values published in paper PMC10163288.
Some of the results follow.

B1: il10ra_site1_normal_mot_HHH_b2_05797_000000294_0001_1_19_H_._HHH_b2_06769_0001_0000300028_0000001_0 (protein)
chain: SSSSDEEDREYAEAALRFAKALKEAGDEEAARLLLRLAAEALKRANDEELLEELEELLEELSSSS
B2: il10ra_site1_normal_mot_HHH_b2_05454_000000273_0001_1_18_H_._HHH_b1_07670_0001_0000200029_0000001_0 (protein)
chain: SSSSSEEEERLEELLEELEEVVKEGDKERALRIVEELLRLAFRARDPEIFEKIWELAKRLASSSS
B3: il10ra_site1_normal_mot_HHH_b1_05056_000000217_0001_1_20_H_._HHH_b2_03866_0001_0000200011_0000001_0 (protein)
chain: SSSSSSEEREEVEELLEEAEHVDDLRELARILAEAVRFAYEGKDEEALQLVWEVVRRLFSSSSSS
B4: il10ra_site1_normal_mot_HHH_b2_03800_000000151_0001_21_37_H_._HHH_b1_01641_0001_0000300017_0000001_0_af2pred_0001 (protein)
chain: SSSSSDEEAREEAEELEEEAHKVDEEERFKLARRISELAKRYQDPRISEIAFRLLELLASSSSSS
B5: il10ra_site1_normal_mot_HHH_b1_05185_000000011_0001_22_39_H_._HHH_b1_05781_0001_0000300028_0000001_0 (protein)
chain: SSSSDEDERYVKLALRFIRALLESGDPEAARTLLKAAEDIAKQHNNEELLEELEQLREEIDSSSS
B6: il10ra_site1_normal_mot_8756ee2cf497b5429c717dfc0c0bcfd6_0001_000000186_0001_1_13_H_._HHH_b2_05079_af2_0001_0000100002_0000002_1_af2pred_dldesign_0_af2pred (protein)
chain: SSSSSSELEELKNLIKEIAELLYEGKPEEARELLEKAEELAKKLGNKTALATLDYLRRQIESSSS
B7: il10ra_site1_normal_mot_2fa031a62b9321f410fa37cb4b35ac9e_0001_af2_000000160_0001_1_14_H_._HHH_b1_04099_0001_0000300025_0000002_0 (protein)
chain: SSSSDAAELARELLEELIEAYENNDPEEFEEIFEEARRLLEEAGNDNAVAVLERIFRLEEGSSSS
B8: il10ra_site1_normal_mot_HHH_b1_05056_000000217_0001_1_20_H_._HHH_b2_01332_0001_0000100012_0000001_0 (protein)
chain: SSSSSDEEEVEQEVEELLEEAKRIPDQRERARVLQEATRIALQGQNPEALQLVWEVVRRLSSSSS
B9: il10ra_site1_normal_mot_0750aae41c39e4229e2ea8fa354cc919_0001_1_000000144_0001_37_51_H_._ems_3hC_921_0001_0001_0000300023_0000001_0 (protein)
chain: SSPEEARKLLEEAHELAEEQNDEHALRAVEFWERLDEEAEKANNENVVRSVERAARRLLELLRES
B10: il10ra_site1_normal_mot_HHH_b2_01310_000000089_0001_41_55_H_._HHH_b1_08628_af2_0001_0000100011_0000001_0_af2pred_0001 (protein)
chain: SSSDEEERAEELYEEAHKLIEEGDDEEALRLLAELTKFVFRLGDPELTRLVLELAELLKRLSSSS
B11: il10ra_site1_sap_16_mot_HHH_b2_07144_000000289_0001_1_18_H_._HHH_b2_05024_0001_0000200022_0000002_1_0001 (protein)
chain: SSSSTLEFSVEFVIRAAELLLEAGNPERARYLLRRAKEIFEEAGDEEAVELLEEALERVEGSSSS
B12: il10ra_site1_normal_mot_HHH_b2_03330_000000161_0001_1_19_H_._HHH_b1_05293_0001_0000700019_0000001_0 (protein)
chain: SSSSDEVFKEAWELFREVAELAEEGDEERIEELLREIEELYREVNDPTLKSILRAIRDLLESSSS
B13: il10ra_site1_sap_23_mot_HHH_b2_08186_000000021_0001_43_56_H_._HHH_b2_02878_af2_0002_0000400016_0000001_0_0001_af2pred_0001 (protein)
chain: SSSSEEAEELVKEVEEELRRLLEEGNFQEAFKALHRAIEELLRLGDPEAARRLSKLFYRLASSSS
B14: il10ra_site1_sap_12_mot_HHH_b2_02053_af2_000000006_0001_3_19_H_._30554b25d4cb88526b5de2d18227f4b9_0001_0001_0000100001_0000001_0_0001_af2pred_0001 (protein)
chain: SSSSSLLERTIQAIRYAIEQGNLERAKLTIRLAKRDAEFLNDEEAAEELKELEEEVRELLSSSSS
B15: il10ra_site1_sap_31_mot_HHH_b2_03708_000000000_0001_1_18_H_._HHH_b2_06184_af2_0001_0000100003_0000002_0_0001 (protein)
chain: KEEARDEASHLMIRAYALAHESDPEARREAEELIEEAKELAEEANDPRVEEIVRIAEEVIKEACS
B16: il10ra_site1_sap_20_mot_HHH_b2_00066_000000124_0001_1_17_H_._HHH_b1_03869_0001_0000200027_0000001_0_0001 (protein)
chain: SSSSSEDEEEVERLLEEVEELARQGDPEEANELAAEALRIAYENKNPELLRLIWEVFQRVGSSSS
B17: il10ra_site1_normal_mot_65b8060e20531850bca9f2e11f97d954_0001_af2_000000137_0001_17_31_H_._HHH_b1_08154_0001_0000100009_0000001_0_af2pred_0001 (protein)
chain: SSSSDEHQRASELAVKAAELIKEGDEEKAREVIEELEEIVEKIGDEKLKKSVRALKASLRSSSSS
B18: il10ra_site1_sap_8_mot_4271555111f650dfcc09ceace45bed71_0001_1_000000133_0001_37_51_H_._HHH_b1_08546_af2_0001_0000400012_0000001_0_0001 (protein)
chain: SSSSDEYKRLKELIEEVVKLQRNGNPEEAEELLEEAIELARERGDWAAAAALEHLARSLRSSSSS
B19: il10ra_site1_normal_mot_HHH_b2_07784_af2_000000103_0001_19_36_H_._HHH_b2_01135_0001_0000200013_0000001_0 (protein)
chain: SSSSDEEYERLKELIERIVEALENNDPEEVRELLEELKELAEELNTFSARFAVRLLERILRSSSS
B20: il10ra_site1_sap_17_mot_1817edcbb30e3b4d8c1983a6c7bdefe8_0001_000000096_0001_36_51_H_._HHH_b1_06688_0001_0000100005_0000001_1_0001 (protein)
chain: SSSSSDEYVRLTLRFAKQLAEAGDPEAAEAMLRAARQIAERNGDEEAQRLVEELEEELEKSSSSS
B21: il10ra_site1_sap_21_mot_HHH_b1_02397_af2_000000085_0001_39_57_H_._HHH_b2_03598_0001_0000200008_0000002_0_0001 (protein)
chain: SSSSSSRQKRQHAEAIIWFAKWIPDRDIRRVALEHAEELAREINDEELLREIEELLEELNSSSSS
B22: il10ra_site1_sap_20_mot_6792f2186577ebd01aa11eb855ed7b57_0001_af2_000000149_0001_1_16_H_._HHH_b1_08125_af2_0001_0000200005_0000001_0_0001 (protein)
chain: TVEHVLRKFAERAVKGDEDAKRILEVIVEAAKTDPQYREVLERLIEILEELGDPELAEELEELLK
B23: il10ra_site1_sap_20_mot_1f0bf248c09923a0581b66a675a8b92c_0001_af2_000000188_0001_52_65_H_._HHH_b1_01266_0001_0000300032_0000001_0_0001 (protein)
chain: SSSSSEREEVYRLLREAIELRDEGNPEEAEKVLEEAREIAEELGDWAFLMNIEFLEEQIKRSSSS
B24: il10ra_site1_sap_29_mot_HHH_b2_00441_000000147_0001_1_18_H_._HHH_b2_06153_0001_0000200020_0000001_0_0001 (protein)
chain: SSSSSSDAKEEVEELLEEAEEIEDPKELTKVLLEALKVALQRGDEEALQLVWEVVHKLSSSSSSS
B25: il10ra_site1_normal_mot_2c1a291787c6f40772924d4e9068d803_0001_af2_000000187_0001_34_48_H_._HHH_b1_01986_0001_0000400039_0000001_0_af2pred_dldesign_0_af2pred (protein)
chain: SSSSNLEKEVFELTVKAVQLYKAGKKEEAKKLLEKALELAKKMGDEKLIANLEHLLKLVESSSSS
B26: il10ra_site1_sap_18_mot_HHH_b2_00076_000000055_0001_40_55_H_._HHH_b2_03406_0001_0000500028_0000001_0_0001 (protein)
chain: SSSSSQEDYRVAKEAIEEAIELFRRGNPEEAREVLEEAIEFVEKNGNWAALFSLRHLAKLLSSSS
B27: il10ra_site1_normal_mot_65b8060e20531850bca9f2e11f97d954_0001_af2_000000137_0001_17_31_H_._HHH_b1_08628_0001_0000100002_0000001_0_af2pred_0001 (protein)
chain: SSSNERERASELFVKAAELIQEGDDEEARKLLEELRELVEEIGDPRLEVSVRFLEALLRAASSSS
B28: il10ra_site1_normal_mot_8756ee2cf497b5429c717dfc0c0bcfd6_0001_000000186_0001_1_13_H_._HHH_b2_00624_0001_0000300028_0000001_0_af2pred_0001 (protein)
chain: SSSSSEEAEELYRLLREAAELHWEGNPEEARELLEEAEELAKEAGNLNALAVIRFLLEVAGSSSS
B29: il10ra_site1_normal_mot_HHH_b1_05056_000000217_0001_1_20_H_._HHH_b1_07608_0001_0000200011_0000001_0 (protein)
chain: SSSSSSDEVEEEVEELIEEARRVDPRELYRLLQEAVRLAFENRDEELLRELWRVVKELSSSSSSS
B30: il10ra_site1_sap_21_mot_HHH_b2_03262_000000140_0001_43_57_H_._HHH_b2_04959_af2_0001_0000800036_0000001_0_0001 (protein)
chain: SSSSSDVEELIEEVEELLERGDPERALQVLWEAAKLAAERGDKELLRRLAELVREVFQLSSSSSS
B31: il10ra_site1_normal_mot_HHH_b2_07006_000000108_0001_1_19_H_._HHH_b1_05245_af2_0001_0000100003_0000002_0 (protein)
chain: SSSDEEEAERIFEEAEELIKELLEEGDPDRAYEVLRRAIELLLELGDPELARRLSQLFVETSSSS
B32: il10ra_site1_normal_mot_cffd2965c37bdde328b01796c783dcd7_0001_1_af2_000000013_0001_37_51_H_._9006757272de5ee680fdc16be6fae3a9_0001_0001_0000300016_0000002_0 (protein)
chain: DEEELEEELRELLGVPPEEVQEIIRKISELMGIPPEIVIEALIRQIRQAGDPELAVEALEFSARA
B33: il10ra_site1_sap_21_mot_HHH_b2_08127_af2_000000022_0001_1_18_H_._HHH_b1_04352_0001_0000100008_0000002_0_0001 (protein)
chain: SSSSSSSELAERVAELLIKASHISDEEEARKLLEEAREVAEEANNQLLRWQVEWIEERLSSSSSS
B34: il10ra_site1_normal_mot_HHH_b2_00475_000000107_0001_44_57_H_._HHH_b1_06647_af2_0001_0000800045_0000002_0 (protein)
chain: SSSSEEERVVELAFRAVRLLANGNPEEAEKVLEEAKELAEELNDEELQRYVEIALHFVRAHSSSS
B35: il10ra_site1_sap_20_mot_HHH_b1_06746_af2_000000172_0001_40_53_H_._c404ac47ecb0312e2f7dfd42d7b7c6cf_0001_0001_0000100001_0000002_0_0001_af2pred_0001 (protein)
chain: SSSSSSEAEELVRRLVEELNLSEEEKELLEAAARALELQGVSEEEAERLLRLLVRLRENDSSSSS
B36: il10ra_site1_sap_20_mot_HHH_b1_03833_af2_000000159_0001_1_20_H_._6641a0bf45b743e2eabc084d195d318e_0001_0001_0000500009_0000001_0_0001_af2pred_0001 (protein)
chain: SSSSSDDRRFEKAVRLLLRAAKQQKDPETLKLTLRFAEQIAKAANDPELEELVEEVKEELSSSSS
B37: il10ra_site1_normal_mot_HHH_b1_06994_000000193_0001_40_55_H_._HHH_b2_00363_0001_0000100002_0000001_0 (protein)
chain: SSSSDLYEEVKEVIERAVELLREGNPEEAEELLEELAEKLEKLGNFAALFSVEHLARVVGSSSSS

What follows are binders tested against il10ra, Q13651 (assay: yeast display titration).

Apparent Kd, inactive:
B1 no binding seen
B2 no binding seen
B3 no binding seen
B4 no binding seen
B5 no binding seen
B6 no binding seen
B7 no binding seen
B8 no binding seen
B9 no binding seen
B10 no binding seen
B11 no binding seen
B12 no binding seen
B13 no binding seen
B14 no binding seen
B15 no binding seen
B16 no binding seen
B17 no binding seen
B18 no binding seen
B19 no binding seen
B20 no binding seen
B21 no binding seen
B22 no binding seen
B23 no binding seen
B24 no binding seen
B25 no binding seen
B26 no binding seen
B27 no binding seen
B28 no binding seen
B29 no binding seen
B30 no binding seen
B31 no binding seen
B32 no binding seen
B33 no binding seen
B34 no binding seen
B35 no binding seen
B36 no binding seen
B37 no binding seen

Reprinted at random: two records from the list
Apparent Kd, inactive:
B24 no binding seen
B23 no binding seen
